Source: PubChem BioAssay AID1224829 (NIAID, 2016)
Test: 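Follow-up of TLR4-NF-kappaB regulators using six separate siRNAs for each gene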 (follow-up of hits). Cells: mouse RAW264.7 G9 macrophage reporter cells. Reagents: single siRNA against mouse genes, 100 nM. Duration: 2 days of siRNA knock-down, then 40 min of LPS before fixing. Challenge: LPS (Salmonella minnesota R595) at 10 ng/ml. Detection: 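Imaging of GFP-p65 after 40 min of LPS; nuclear over perinuclear ring intensity ratio, scaled to plate median and non-targeting control wells, given as z-score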. Reading the numbers: p65 translocation z-score and gene median z-score, per vendor: higher = more nuclear NF-kappaB p65 after LPS. Call rule: 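Active means the replicate-mean z-score lies beyond plus or minus 2, in either direction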. Meaning of the calls: active = changed p65 translocation (either direction); inactive = no clear change.
This is one part, drawn at random, of about 3,800 deposited reagents. 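Calls cover raised and lowered translocation; gene median uses one vendor's three siRNAs; qiagen siRNAs acted more weakly than ambion siRNAs.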 A number with no mark means an inactive call. Reagents against one gene are numbered here. Reagent sequences are not shown.

Target gene | reagent no. | siRNA vendor or control pool | p65 translocation z-score, replicate mean | p65 translocation z-score, replicate 1 | p65 translocation z-score, replicate 2 | gene median z-score, per vendor
Pon2 (GeneID 330260) | 1 | ambion single siRNA | 0.496 | 0.48 | 0.512 | -2.5
Pon2 (GeneID 330260) | 2 | ambion single siRNA | -3.51 (active) | -3.6 | -3.42 | -2.5
Pon2 (GeneID 330260) | 3 | ambion single siRNA | -3.2 (active) | -1.57 | -4.83 | -2.5
Pon2 (GeneID 330260) | 4 | qiagen single siRNA | -1.68 | -0.378 | -2.99 | -1.89
Pon2 (GeneID 330260) | 5 | qiagen single siRNA | -0.499 | -0.798 | -0.2 | -1.89
Pon2 (GeneID 330260) | 6 | qiagen single siRNA | -4.36 (active) | -3.33 | -5.38 | -1.89
Csn1s2a (GeneID 12993) | 1 | ambion single siRNA | -2.62 (active) | -1.91 | -3.33 | -1.15
Csn1s2a (GeneID 12993) | 2 | ambion single siRNA | -0.918 | 0.247 | -2.08 | -1.15
Csn1s2a (GeneID 12993) | 3 | ambion single siRNA | 0.135 | 0.661 | -0.391 | -1.15
Csn1s2a (GeneID 12993) | 4 | qiagen single siRNA | 0.932 | 1.38 | 0.485 | 0.821
Csn1s2a (GeneID 12993) | 5 | qiagen single siRNA | 0.872 | 1.32 | 0.428 | 0.821
Csn1s2a (GeneID 12993) | 6 | qiagen single siRNA | 0.74 | 0.323 | 1.16 | 0.821
Lhfpl4 (GeneID 269788) | 1 | ambion single siRNA | 0.154 | 0.311 | -0.0035 | -3.22
Lhfpl4 (GeneID 269788) | 2 | ambion single siRNA | -4.41 (active) | -5.79 | -3.03 | -3.22
Lhfpl4 (GeneID 269788) | 3 | ambion single siRNA | -3.4 (active) | -3.4 | -3.4 | -3.22
Lhfpl4 (GeneID 269788) | 4 | qiagen single siRNA | 3.14 (active) | 1.87 | 4.41 | 1.22
Lhfpl4 (GeneID 269788) | 5 | qiagen single siRNA | 2.3 (active) | 0.583 | 4.02 | 1.22
Lhfpl4 (GeneID 269788) | 6 | qiagen single siRNA | -3.56 (active) | -2.86 | -4.25 | 1.22
Sftpd (GeneID 20390) | 1 | ambion single siRNA | 0.134 | 1.38 | -1.11 | -1.46
Sftpd (GeneID 20390) | 2 | ambion single siRNA | -1.31 | -0.81 | -1.82 | -1.46
Sftpd (GeneID 20390) | 3 | ambion single siRNA | -3.49 (active) | -3.5 | -3.48 | -1.46
Sftpd (GeneID 20390) | 4 | qiagen single siRNA | -1.27 | -2.45 | -0.094 | -0.094
Sftpd (GeneID 20390) | 5 | qiagen single siRNA | 1.03 | 1.03 | – | -0.094
Sftpd (GeneID 20390) | 6 | qiagen single siRNA | -1.3 | -2.76 | 0.168 | -0.094

Already shown: entries from further up.
Target gene | reagent no. | siRNA vendor or control pool | p65 translocation z-score, replicate mean | p65 translocation z-score, replicate 1 | p65 translocation z-score, replicate 2 | gene median z-score, per vendor
Pon2 (GeneID 330260) | 5 | qiagen single siRNA | -0.499 | -0.798 | -0.2 | -1.89
Pon2 (GeneID 330260) | 6 | qiagen single siRNA | -4.36 (active) | -3.33 | -5.38 | -1.89
Csn1s2a (GeneID 12993) | 1 | ambion single siRNA | -2.62 (active) | -1.91 | -3.33 | -1.15
Csn1s2a (GeneID 12993) | 2 | ambion single siRNA | -0.918 | 0.247 | -2.08 | -1.15
Csn1s2a (GeneID 12993) | 3 | ambion single siRNA | 0.135 | 0.661 | -0.391 | -1.15
Csn1s2a (GeneID 12993) | 4 | qiagen single siRNA | 0.932 | 1.38 | 0.485 | 0.821
Csn1s2a (GeneID 12993) | 5 | qiagen single siRNA | 0.872 | 1.32 | 0.428 | 0.821
Csn1s2a (GeneID 12993) | 6 | qiagen single siRNA | 0.74 | 0.323 | 1.16 | 0.821

Next entries follow.
Target gene | reagent no. | siRNA vendor or control pool | p65 translocation z-score, replicate mean | p65 translocation z-score, replicate 1 | p65 translocation z-score, replicate 2 | gene median z-score, per vendor
Gsc2 (GeneID 195333) | 1 | qiagen single siRNA | 2.12 (active) | 1.27 | 2.96 | 0.482
Gsc2 (GeneID 195333) | 2 | qiagen single siRNA | -0.538 | -1.56 | 0.482 | 0.482
Gsc2 (GeneID 195333) | 3 | qiagen single siRNA | -2.15 (active) | -2.15 | – | 0.482
Or5w20 (GeneID 258633) | 1 | ambion single siRNA | -2.63 (active) | -2.59 | -2.67 | -3.36
Or5w20 (GeneID 258633) | 2 | ambion single siRNA | – | – | – | -3.36
Or5w20 (GeneID 258633) | 3 | ambion single siRNA | -4.93 (active) | -4.05 | -5.82 | -3.36
Or5w20 (GeneID 258633) | 4 | qiagen single siRNA | -0.837 | -0.245 | -1.43 | -1.58
Or5w20 (GeneID 258633) | 5 | qiagen single siRNA | 0.0196 | -1.72 | 1.76 | -1.58
Or5w20 (GeneID 258633) | 6 | qiagen single siRNA | -2.5 (active) | -2.35 | -2.65 | -1.58
Hs3st1 (GeneID 15476) | 1 | ambion single siRNA | 0.653 | 1.35 | -0.0455 | -0.234
Hs3st1 (GeneID 15476) | 2 | ambion single siRNA | -1.04 | -0.234 | -1.84 | -0.234
Hs3st1 (GeneID 15476) | 3 | ambion single siRNA | -3.53 (active) | -3.53 | – | -0.234
Hs3st1 (GeneID 15476) | 4 | qiagen single siRNA | 1.23 | 0.511 | 1.95 | 0.093
Hs3st1 (GeneID 15476) | 5 | qiagen single siRNA | 0.247 | -0.325 | 0.82 | 0.093
Hs3st1 (GeneID 15476) | 6 | qiagen single siRNA | -3.51 (active) | -5.35 | -1.67 | 0.093
Raf1 (GeneID 110157) | 1 | ambion single siRNA | -2.09 (active) | -1.9 | -2.29 | -2.09
Raf1 (GeneID 110157) | 2 | ambion single siRNA | -0.336 | 0.0377 | -0.71 | -2.09
Raf1 (GeneID 110157) | 3 | ambion single siRNA | -3.08 (active) | -2.61 | -3.54 | -2.09
Raf1 (GeneID 110157) | 4 | qiagen single siRNA | 0.75 | 1.43 | 0.0732 | -0.00483
Raf1 (GeneID 110157) | 5 | qiagen single siRNA | -0.505 | -0.926 | -0.0829 | -0.00483
Raf1 (GeneID 110157) | 6 | qiagen single siRNA | – | – | – | -0.00483
Or4g17 (GeneID 258379) | 1 | ambion single siRNA | -2.59 (active) | -2.59 | – | -2.16
Or4g17 (GeneID 258379) | 2 | ambion single siRNA | 0.693 | 0.693 | – | -2.16
Or4g17 (GeneID 258379) | 3 | ambion single siRNA | -2.44 (active) | -3.13 | -1.74 | -2.16
Or4g17 (GeneID 258379) | 4 | qiagen single siRNA | 2.17 (active) | 0.841 | 3.5 | -1.24
Or4g17 (GeneID 258379) | 5 | qiagen single siRNA | -2.02 (active) | -2.31 | -1.74 | -1.24
Or4g17 (GeneID 258379) | 6 | qiagen single siRNA | -2.44 (active) | -0.751 | -4.13 | -1.24
